Data reported in article PMC10269864.
No constants are given. Whether binding was seen depends on the method and setting. Binding seen in cells or lysates may run through a third protein. Here binding means that the protein was enriched with, or labelled near, the bait; the list need not be complete. Tags and fused reporters may be left off the sequences shown.

Biological target: T1, Hyponastic Leaves 1 (HYL1) tagged with the hemagglutinin (HA) epitope (pHYL1:HYL1:HA) (Arabidopsis thaliana) (UniProt O04492)
T1 sequence: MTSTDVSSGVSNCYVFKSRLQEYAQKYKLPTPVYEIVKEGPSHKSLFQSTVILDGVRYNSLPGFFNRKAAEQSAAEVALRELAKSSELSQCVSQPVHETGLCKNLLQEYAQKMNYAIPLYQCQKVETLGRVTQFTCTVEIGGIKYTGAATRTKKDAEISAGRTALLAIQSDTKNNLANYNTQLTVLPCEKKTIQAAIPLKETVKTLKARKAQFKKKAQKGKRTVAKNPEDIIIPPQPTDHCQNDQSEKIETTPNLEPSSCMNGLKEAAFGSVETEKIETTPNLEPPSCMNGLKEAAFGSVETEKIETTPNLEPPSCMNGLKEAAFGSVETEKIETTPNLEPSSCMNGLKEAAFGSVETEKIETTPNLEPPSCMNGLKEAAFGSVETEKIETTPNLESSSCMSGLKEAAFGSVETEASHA
Experiment: affinity purification with mass spectrometry; nuclear extract of pHYL1:HYL1:HA plants, anti-HA antibodies overnight, Dynabeads protein G; washes with low-salt, high-salt (500 mM NaCl), LiCl buffers and TE; control IPs in Col-0

## karyopherin enabling the transport of the cytoplasmic HYL1 (KETCH1) (from UniProt F4K2M5)
  binding: binds

B1: cell division cycle 5 (CDC5) (protein, UniProt P92948 1-844)
chain: MRIMIKGGVWKNTEDEILKAAVMKYGKNQWARISSLLVRKSAKQCKARWYEWLDPSIKKTEWTREEDEKLLHLAKLLPTQWRTIAPIVGRTPSQCLERYEKLLDAACTKDENYDAADDPRKLRPGEIDPNPEAKPARPDPVDMDEDEKEMLSEARARLANTRGKKAKRKAREKQLEEARRLASLQKRRELKAAGIDGRHRKRKRKGIDYNAEIPFEKRAPAGFYDTADEDRPADQVKFPTTIEELEGKRRADVEAHLRKQDVARNKIAQRQDAPAAILQANKLNDPEVVRKRSKLMLPPPQISDHELEEIAKMGYASDLLAENEELTEGSAATRALLANYSQTPRQGMTPMRTPQRTPAGKGDAIMMEAENLARLRDSQTPLLGGENPELHPSDFTGVTPRKKEIQTPNPMLTPSMTPGGAGLTPRIGLTPSRDGSSFSMTPKGTPFRDELHINEDMDMHESAKLERQRREEARRSLRSGLTGLPQPKNEYQIVAQPPPEESEEPEEKIEEDMSDRIAREKAEEEARQQALLKKRSKVLQRDLPRPPAASLAVIRNSLLSADGDKSSVVPPTPIEVADKMVREELLQLLEHDNAKYPLDDKAEKKKGAKNRTNRSASQVLAIDDFDENELQEADKMIKEEGKFLCVSMGHENKTLDDFVEAHNTCVNDLMYFPTRSAYELSSVAGNADKVAAFQEEMENVRKKMEEDEKKAEHMKAKYKTYTKGHERRAETVWTQIEATLKQAEIGGTEVECFKALKRQEEMAASFRKKNLQEEVIKQKETESKLQTRYGNMLAMVEKAEEIMVGFRAQALKKQEDVEDSHKLKEAKLATGEEEDIAIAMEASA
  binding: binds
